# Measurements reported in PubChem BioAssay AID504764 (Drosophila RNAi Screening Center, 2011)
# Aim: 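Genome-wide screen for regulators of Notch-driven gene expression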 (primary screen)
# System: Drosophila Kc167 cells
# Reagents: long dsRNA against Drosophila genes
# Duration: about 5 days (4 days dsRNA, then 24 h after transfection)
# Challenge: transfection of constitutively active membrane-tethered Notch lacking the extracellular domain, read 24 h later
# Read-out: 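Light from a Notch-responsive E(spl)m3 luciferase reporter under active Notch, with control-promoter and no-Notch reporter wells to normalise; raw counts from paired wells a and b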
# Reading the numbers: induced reporter light, run 1, well a and induced reporter light, run 1, well b: higher = more light from the Notch target reporter with active Notch; control promoter light, run 1, well a and control promoter light, run 1, well b: higher = more light from the viral control promoter (cell number, transfection, viability); uninduced reporter light, run 1, well a: higher = more light from the Notch target reporter without active Notch
# Active means: 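Hit if the duplicate-averaged log2 ratio of induced to control-promoter light gives a plate-wise z beyond ±2, or induced to uninduced beyond ±1.8; weak-control or discordant-duplicate wells dropped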
# Calls: active = modifier hit (raised or lowered Notch signal); inactive = not a hit
# The screen tested about 22,000 reagents; this is a random part of those with a known target gene and a result. In the full data, 403 (1.9%) were called active. 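Unnormalised raw counts per well; ratio z-scores behind the hit calls and whether each hit raises or lowers signal are not deposited.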 A plus sign joins genes that one reagent is predicted to hit. Not stated in the record: the amount of reagent.
gene,amplicon,"induced reporter light, run 1, well a","induced reporter light, run 1, well b","control promoter light, run 1, well a","control promoter light, run 1, well b","uninduced reporter light, run 1, well a",activity call
Mt2,DRSC03374,1.97e5,2.11e5,1.87e5,1.96e5,16578,inactive
CG14383,DRSC14841,3.33e5,3.37e5,2.90e5,2.97e5,24625,inactive
CG9752,DRSC04562,1.97e5,2.25e5,1.83e5,1.88e5,16340,inactive
CG13924,DRSC08393,68505,1.18e5,1.92e5,1.30e5,6085,inactive
TP53INP,DRSC08178,1.50e5,1.14e5,1.35e5,78395,11350,active
Atg16,DRSC15052,1.83e5,1.86e5,2.95e5,2.61e5,10505,inactive
Atg16,DRSC15300,1.49e5,1.18e5,1.76e5,1.87e5,11920,inactive
Atg16,DRSC15375,1.30e5,1.24e5,1.86e5,1.80e5,11445,inactive
thw,DRSC12552,58335,78345,59850,71825,5020,inactive
CG13101,DRSC02201,2.62e5,2.15e5,1.84e5,1.90e5,16470,inactive
CG6059,DRSC15958,1.85e5,2.27e5,2.33e5,2.53e5,13315,inactive
scpr-B,DRSC15200,1.34e5,1.24e5,89925,85510,9445,inactive
CG2972,DRSC18250,1.54e5,1.44e5,1.81e5,1.39e5,8340,inactive
Mst57Dc,DRSC16745,2.03e5,1.87e5,2.15e5,2.27e5,15392,inactive
CG13442,DRSC06402,1.06e5,1.33e5,2.53e5,1.33e5,6545,inactive
CG2652,DRSC18501,44250,60955,71910,77510,3885,inactive
Ggamma1,DRSC07435,1.06e5,1.07e5,1.21e5,83360,8265,inactive
Teh2,DRSC08458,1.59e5,1.24e5,2.08e5,1.52e5,7405,inactive
Wee1,DRSC03635,1.53e5,1.52e5,1.76e5,2.21e5,10405,inactive
CG10834,DRSC03693,53520,40420,44280,47760,2935,inactive
dwg,DRSC18766,1.91e5,1.97e5,2.40e5,3.00e5,13570,inactive

Targets listed so far whose gene name begins with C or c:
gene,amplicon,"induced reporter light, run 1, well a","induced reporter light, run 1, well b","control promoter light, run 1, well a","control promoter light, run 1, well b","uninduced reporter light, run 1, well a",activity call
CG14383,DRSC14841,3.33e5,3.37e5,2.90e5,2.97e5,24625,inactive
CG9752,DRSC04562,1.97e5,2.25e5,1.83e5,1.88e5,16340,inactive
CG13924,DRSC08393,68505,1.18e5,1.92e5,1.30e5,6085,inactive
CG13101,DRSC02201,2.62e5,2.15e5,1.84e5,1.90e5,16470,inactive
CG6059,DRSC15958,1.85e5,2.27e5,2.33e5,2.53e5,13315,inactive
CG2972,DRSC18250,1.54e5,1.44e5,1.81e5,1.39e5,8340,inactive
CG13442,DRSC06402,1.06e5,1.33e5,2.53e5,1.33e5,6545,inactive
CG2652,DRSC18501,44250,60955,71910,77510,3885,inactive
CG10834,DRSC03693,53520,40420,44280,47760,2935,inactive

Additional entries:
gene,amplicon,"induced reporter light, run 1, well a","induced reporter light, run 1, well b","control promoter light, run 1, well a","control promoter light, run 1, well b","uninduced reporter light, run 1, well a",activity call
CG42750,DRSC02458,70690,70720,63490,59745,7230,inactive
CG42750,DRSC03019,1.71e5,1.98e5,1.74e5,2.01e5,15840,inactive
CG42750,DRSC03024,1.32e5,1.48e5,1.49e5,1.41e5,14800,inactive
SMC6,DRSC15829,1.65e5,1.67e5,1.86e5,1.50e5,15210,inactive
Prx6c + CG12896 + Prx6b,DRSC06148,1.59e5,1.81e5,2.28e5,2.29e5,14235,inactive
Magi,DRSC04247,82385,70500,40720,65535,5515,inactive
Magi,DRSC04451,25790,46275,69540,64840,2440,inactive
Sym,DRSC12301,50260,52720,27180,24335,3485,inactive
Fitm,DRSC09772,93605,1.25e5,67630,48915,10090,inactive
ND-23,DRSC15526,1.98e5,2.33e5,3.01e5,3.68e5,16070,inactive
CG9411,DRSC20184,1.74e5,1.65e5,2.59e5,1.76e5,11350,inactive
CG32628 (retired record),DRSC19405,40435,44970,62110,38390,2975,inactive
CG31300,DRSC14657,1.46e5,1.49e5,1.98e5,2.25e5,11215,inactive
kappaB-Ras + CG30503,DRSC06619,1.59e5,1.16e5,1.97e5,1.66e5,11770,inactive
kappaB-Ras + CG30503,DRSC07636,1.90e5,2.03e5,2.53e5,2.35e5,15705,inactive
PDCD-5,DRSC09955,2.73e5,1.90e5,2.70e5,2.32e5,13350,inactive
Had2,DRSC05971,1.85e5,1.80e5,1.87e5,1.95e5,14170,inactive
CG13040,DRSC09921,2.30e5,2.18e5,2.84e5,3.30e5,7325,inactive
Atx-1,DRSC18365,1.30e5,1.46e5,2.75e5,2.37e5,11050,inactive
trus,DRSC15772,46195,34770,55530,41405,4740,inactive
CCT4,DRSC02865,44850,46635,44640,46765,4240,inactive
CG12470,DRSC18620,98945,88260,1.81e5,1.67e5,6960,inactive
spartin,DRSC12187,1.61e5,1.80e5,2.09e5,1.90e5,11615,inactive
CG16868,DRSC06633,83765,93085,1.83e5,2.00e5,8400,inactive
Atac2,DRSC02053,2.67e5,1.96e5,1.99e5,1.99e5,16510,inactive
CG15535,DRSC15071,1.39e5,1.48e5,1.41e5,1.29e5,12030,active
CG42258,DRSC19741,67855,72165,89115,1.04e5,5380,inactive
CG42258,DRSC19783,10360,7860,9110,6755,3035,inactive
CG13323,DRSC06360,1.38e5,1.25e5,1.32e5,1.11e5,13355,active
mRpS6,DRSC08470,2.79e5,2.70e5,4.02e5,3.54e5,15185,inactive
TwdlB,DRSC16050,1.79e5,1.10e5,1.90e5,1.56e5,12880,inactive
CG1265,DRSC08288,1.33e5,1.47e5,2.31e5,2.16e5,13655,inactive
CG18563,DRSC02676,1.38e5,1.34e5,1.54e5,1.82e5,11000,inactive
CG1544,DRSC15036,1.64e5,1.37e5,2.05e5,2.56e5,12990,inactive
GCS2alpha,DRSC21036,1.07e5,96355,91275,1.27e5,11242,inactive
fidipidine,DRSC07618,1.76e5,1.07e5,2.45e5,1.79e5,11455,inactive
eIF2beta,DRSC11341,40370,36740,66045,48850,1200,inactive
SCCRO3,DRSC06359,67035,84405,87935,1.04e5,5378,inactive
mri,DRSC08259,80130,1.09e5,1.44e5,1.51e5,7925,inactive
CG7460,DRSC10850,1.77e5,1.48e5,2.09e5,2.25e5,10780,inactive
Rgl,DRSC11267,50210,41775,53545,61480,6625,inactive
CG31897,DRSC01020,1.30e5,2.00e5,2.01e5,1.70e5,9950,inactive
CG32437,DRSC11760,1.24e5,99075,1.18e5,92820,6850,inactive
